Taken from: PubChem BioAssay AID1508597 (Cure First, 2020)

Screen: 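Survival screen with siRNA in ovarian cancer cells derived from patients, with or without rucaparib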 (primary screen)
Cells: human ovarian carcinoma lines grown from tumours: OCI-P5x (papillary serous) and OCI-C5x (clear cell)
Reagents: siRNA pool against human genes, 1.25 pmol siRNA per well
Time to read-out: 72 h or 96 h, depending on the cell culture
Challenge: rucaparib 20 µM (about IC30) or vehicle, present until read-out
Rucaparib or vehicle: Vehicle
Cell line: OCI-C5x (clear cell)
Measurement: 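Luminescent ATP-based viability assay read 72 or 96 h after transfection, depending on culture, given as normalised percent viability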
Reading the numbers: viability, normalised: higher = more viable cells remaining
Hit rule: 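a well counts as a hit if its normalised viability is under 80 percent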
Meaning of the calls: active = viability under 80%; inactive = viability 80% or more
This is a random part of the about 2,100 reagents, in one setting of the screen. 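Calls flag viability under 80% in either arm, not effects specific to rucaparib; the reference for percent is not stated.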 The numbers tell different reagents against one gene apart. A reagent listed more than once was tested more than once; the source does not tell the runs apart. Not given: the 100% reference.

Target gene | pool no. | technical replicate | viability, normalised (%) | outcome
LSM1 | 1 | 1 | 63.6 | active
LSM1 | 1 | 2 | 61.7 | active
LSM1 | 1 | 3 | 51.7 | active
MAP3K7 | 1 | 1 | 50.4 | active
MAP3K7 | 1 | 2 | 76.6 | active
MAP3K7 | 1 | 3 | 73.5 | active
PHKB | 1 | 1 | 58.8 | active
PHKB | 1 | 2 | 43.9 | active
PHKB | 1 | 3 | 39.1 | active
PTK2 | 1 | 1 | 128 | inactive
PTK2 | 1 | 2 | 104 | inactive
PTK2 | 1 | 3 | 112 | inactive
SLC17A1 | 1 | 1 | 31.6 | active
SLC17A1 | 1 | 2 | 30.1 | active
SLC17A1 | 1 | 3 | 41.6 | active
NEIL2 | 1 | 1 | 48.8 | active
NEIL2 | 1 | 2 | 51.3 | active
NEIL2 | 1 | 3 | 59 | active
SUPV3L1 | 1 | 1 | 54.6 | active
SUPV3L1 | 1 | 1 | 32.5 | active
SUPV3L1 | 1 | 2 | 36.7 | active
SUPV3L1 | 1 | 2 | 37.7 | active
SUPV3L1 | 1 | 3 | 33.2 | active
SUPV3L1 | 1 | 3 | 49.3 | active
TAF9 | 1 | 1 | 58.3 | active
TAF9 | 1 | 2 | 55.7 | active
TAF9 | 1 | 3 | 44 | active

Targets listed so far whose target name begins with L or l:
Target gene | pool no. | technical replicate | viability, normalised (%) | outcome
LSM1 | 1 | 1 | 63.6 | active
LSM1 | 1 | 2 | 61.7 | active
LSM1 | 1 | 3 | 51.7 | active

The listing continues:
Target gene | pool no. | technical replicate | viability, normalised (%) | outcome
TEAD4 | 1 | 1 | 62.9 | active
TEAD4 | 1 | 2 | 65.4 | active
TEAD4 | 1 | 3 | 72.7 | active
SLIT3 | 1 | 1 | 48.9 | active
SLIT3 | 1 | 2 | 50.3 | active
SLIT3 | 1 | 3 | 41.5 | active
DRD1 | 1 | 1 | 53.8 | active
DRD1 | 1 | 2 | 57.1 | active
DRD1 | 1 | 3 | 48 | active
CLDN20 | 1 | 1 | 43.6 | active
CLDN20 | 1 | 2 | 55.6 | active
CLDN20 | 1 | 3 | 51.4 | active
EPAS1 | 1 | 1 | 55.6 | active
EPAS1 | 1 | 2 | 46.5 | active
EPAS1 | 1 | 3 | 53.5 | active
EPHA6 | 1 | 1 | 67.6 | active
EPHA6 | 1 | 2 | 73.6 | active
EPHA6 | 1 | 3 | 52.9 | active
ERN1 | 1 | 1 | 62.4 | active
ERN1 | 1 | 2 | 65.2 | active
ERN1 | 1 | 3 | 52.6 | active
ABRAXAS1 | 1 | 1 | 67.5 | active
ABRAXAS1 | 1 | 2 | 76.1 | active
ABRAXAS1 | 1 | 3 | 64.8 | active
ABRAXAS1 | 2 | 1 | 48.6 | active
ABRAXAS1 | 2 | 2 | 51.1 | active
ABRAXAS1 | 2 | 3 | 43.1 | active
PKN1 | 1 | 1 | 70.3 | active
PKN1 | 1 | 1 | 67.3 | active
PKN1 | 1 | 1 | 47.8 | active
PKN1 | 1 | 2 | 53 | active
PKN1 | 1 | 2 | 78 | active
PKN1 | 1 | 2 | 40.6 | active
PKN1 | 1 | 3 | 66.7 | active
PKN1 | 1 | 3 | 33.3 | active
PKN1 | 1 | 3 | 73.9 | active
